Publication PMC5267519, “Evaluation of a Novel Renewable Hepatic Cell Model for Prediction of Clinical CYP3A4 Induction Using a Correlation-Based Relative Induction Score Approach” (Drug Metabolism and Disposition, 2017)
“And” between values parts separate entries of the source, which are not always exact repeats. Equal entries are not always repeated.

Experiments:
CYP3A4 [1] = test system: CYP3A4
CYP3A4 mRNA [2] = test system: CYP3A4 mRNA
CYP3A4 [3] = test system: CYP3A4; remark: listed apart in the source
Excerpt: The resulting fitting equation was used to calculate predicted in vivo AUC change for each compound. […] Prediction accuracy using HepatoCells was also compared with prediction accuracy using primary human hepatocytes.

CYP3A4 mRNA [4] = experiment: in vitro; conditions: human

## COC(=O)C1=C(C)NC(C)=C(C(=O)OC)C1c1ccccc1[N+](=O)[O-] [Nifedipine]
CYP3A4 [1]
  CYP3A4 enzyme activity induction response (in words): positive induction response
CYP3A4 [1]; human
  CYP3A4 enzyme activity induction over solvent vehicle control: greater than 1.4 fold
  Emax, enzyme activity (all lots): greater than 20 fold
  RIS Based on Enzyme Activity, Mean: 0.0697
  RIS values based on enzyme activity (range stated for group of compounds): 0.0004–0.09
CYP3A4 mRNA [2]
  CYP3A4 mRNA expression induction response (in words): positive induction response
CYP3A4 mRNA [2]; human
  CYP3A4 mRNA induction over solvent vehicle control: greater than 1.4 fold
  Emax, mRNA expression (all lots): greater than 20 fold
  RIS Based on mRNA, Mean: 0.13
  RIS values based on CYP3A4 mRNA level (range stated for group of compounds): 0.0012–0.16
CYP3A4 [3]
  Predicted % AUC Change Based on Activity: 8.9% and 2.1% and 0.63%
  Predicted % AUC Change Based on mRNA: 4.4% and 0.89% and 8.3%
  Predicted AUC change using HepatoCells (range of lots): 0.9–8%
CYP3A4 mRNA [4]
  EC50: 3.5 µM
